# Measurements published in doi:10.1101/2021.09.06.459192.
# The chains behind the UniProt entries cited, without tags or fusion partners.
# UniProt P42945: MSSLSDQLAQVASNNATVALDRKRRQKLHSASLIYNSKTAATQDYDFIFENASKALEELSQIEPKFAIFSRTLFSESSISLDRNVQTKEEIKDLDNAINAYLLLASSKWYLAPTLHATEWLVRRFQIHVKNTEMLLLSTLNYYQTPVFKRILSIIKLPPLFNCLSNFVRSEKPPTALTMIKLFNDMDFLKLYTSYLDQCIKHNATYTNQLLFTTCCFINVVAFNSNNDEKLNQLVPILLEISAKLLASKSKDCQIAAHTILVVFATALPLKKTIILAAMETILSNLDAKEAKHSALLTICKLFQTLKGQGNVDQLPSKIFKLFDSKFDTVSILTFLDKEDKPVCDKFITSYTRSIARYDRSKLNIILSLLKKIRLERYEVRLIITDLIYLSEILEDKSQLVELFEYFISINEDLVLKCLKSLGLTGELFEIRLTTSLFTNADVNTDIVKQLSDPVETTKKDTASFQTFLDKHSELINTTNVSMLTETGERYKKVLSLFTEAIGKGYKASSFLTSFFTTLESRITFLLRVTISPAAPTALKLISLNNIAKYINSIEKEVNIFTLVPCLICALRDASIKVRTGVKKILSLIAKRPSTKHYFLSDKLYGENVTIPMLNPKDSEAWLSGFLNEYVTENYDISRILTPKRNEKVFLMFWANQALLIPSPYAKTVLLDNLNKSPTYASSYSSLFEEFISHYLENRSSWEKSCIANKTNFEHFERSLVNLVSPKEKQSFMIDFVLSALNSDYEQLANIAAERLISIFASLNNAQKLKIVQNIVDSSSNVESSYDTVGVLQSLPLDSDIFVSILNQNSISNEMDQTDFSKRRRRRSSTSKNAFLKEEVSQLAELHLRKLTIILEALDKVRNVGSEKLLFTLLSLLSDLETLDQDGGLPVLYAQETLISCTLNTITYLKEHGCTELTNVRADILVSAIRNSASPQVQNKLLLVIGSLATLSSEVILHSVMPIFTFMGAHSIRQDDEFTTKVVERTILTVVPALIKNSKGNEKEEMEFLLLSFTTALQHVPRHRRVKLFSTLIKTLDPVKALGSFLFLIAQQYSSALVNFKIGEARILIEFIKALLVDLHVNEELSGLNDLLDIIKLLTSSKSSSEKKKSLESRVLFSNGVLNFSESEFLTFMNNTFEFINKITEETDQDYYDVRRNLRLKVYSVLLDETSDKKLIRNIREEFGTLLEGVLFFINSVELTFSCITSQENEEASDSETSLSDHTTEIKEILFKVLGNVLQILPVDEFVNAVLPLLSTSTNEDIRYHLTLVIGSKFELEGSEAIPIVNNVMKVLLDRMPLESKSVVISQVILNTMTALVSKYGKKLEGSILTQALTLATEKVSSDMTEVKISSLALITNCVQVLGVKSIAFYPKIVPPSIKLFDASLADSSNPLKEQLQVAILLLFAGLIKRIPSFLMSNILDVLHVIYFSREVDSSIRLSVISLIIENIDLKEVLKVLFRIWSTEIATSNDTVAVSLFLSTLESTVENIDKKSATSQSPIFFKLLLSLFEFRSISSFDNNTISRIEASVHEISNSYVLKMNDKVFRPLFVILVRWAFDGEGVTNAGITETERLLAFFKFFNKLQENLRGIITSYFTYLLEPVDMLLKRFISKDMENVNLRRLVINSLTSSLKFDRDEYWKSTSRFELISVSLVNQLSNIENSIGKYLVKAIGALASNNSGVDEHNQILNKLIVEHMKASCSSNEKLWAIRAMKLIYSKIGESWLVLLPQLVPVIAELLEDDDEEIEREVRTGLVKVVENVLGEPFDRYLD
# Results are given in words; binding and its absence hold for the method and conditions named. Binding seen in cells or lysates may run through a third protein. Here binding means that the protein was enriched with, or labelled near, the bait; the list need not be complete.
# B1: Rcl1 (protein, UniProt Q08096 1-367)
# chain: MSSSAPKYTTFQGSQNFRLRIVLATLSGKPIKIEKIRSGDLNPGLKDYEVSFLRLIESVTNGSVIEISYTGTTVIYRPGIIVGGASTHICPSSKPVGYFVEPMLYLAPFSKKKFSILFKGITASHNDAGIEAIKWGLMPVMEKFGVRECALHTLKRGSPPLGGGEVHLVVDSLIAQPITMHEIDRPIISSITGVAYSTRVSPSLVNRMIDGAKKVLKNLQCEVNITADVWRGENSGKSPGWGITLVAQSKQKGWSYFAEDIGDAGSIPEELGEKVACQLLEEISKSAAVGRNQLPLAIVYMVIGKEDIGRLRINKEQIDERFIILLRDIKKIFNTEVFLKPVDEADNEDMIATIKGIGFTNTSKKIA
# B2: Rrp12 (protein, UniProt Q12754 1-1228)
# chain: MDQDKVAFLLELEDKLAKIRSQVNSKLENQKHIAIILTAVEENIAGQATNDVSKNIVNYIISFMSLLDQAVDPSTHEIKDIQLASSSTYLLDLIFHYSPKVLLRSKFSEILTKIAPCITAEKANAPLIRAAIGCLESLLIAQDAQAWNNTYDLNVTPKRGLQGILELSLDVRPKVRKRALDAVHAVLLNPPVAPTAEHVAAVFVADFCDKQLAGILNDLSNLSNKQLKAQKTKEDINASVMRSLRLITSVVSTGQWPSSQIEPLCDVLLGVTKSSEQYLVSASFECFESMFKTMAETTISSGLAENKYLRVLDTIFALKPSNVDTLLTKSWIAVVIKGMSTYATHQPLKALRKIPGVFHIMCTYLASETPEVYQAASQCLISILSESVKDDLLLYTPSVDEKVFKNVDEIISQIAKTFIDFLSIRYSHCSREILKILVAAFNKFRYRSNPHFLKSLKIVDTWRVNEEQFMDLRNEIELVIGASISAMGPEMILAEAPLNLDNPSSERPGRAWLLPLIRDYTKNANLATFQNELAPYIKSFQSKFDKVPEESIQLRVFQTIVDQIWSTLPRFCELPMDLRESFTDEFASELSSLLYSEVELRTTICHALKVLAESNVSYAEESSSHNVLLLQRFPISEAQKNIEYLSTKSTNLLAVLFNVYTQTTPNARSYILETIDQYLKITSKEDLEKTFNNVCGLLKNSMNEESSGNVNKEKKKPQLTATLLDLIICMITYLPVSSYSALFSMFSLTVNSADALIQKRAYRIITKLSELKSGSTAVAQFISDIENVMVDSASSVQTSAKAARLTAIKTIVELLPLDHLDFIVRTVAEVILSTKDVNEKSRETAFDTLICMGRKMNEPNGIIKLFQIPGYDPTTPDQSSSISEFFKIISAGLIGESQHMVSSSITGYACLVFEFKNELDSGILMDIYDTIELYLTSNSREIVKSAIGFTKVCVLGLPEELMRPKVPELLLKLLRWSHEHTGHFKAKVKHIIERLIRRFGYDYIEANFPEEDRRLLTNIRKMRNRNKRKDEEVTTGVSDVAATKGSRFMSAFDEAVYGSDEENDNGSDQEENVAGGKMKNGAKQFIVESGDNPLDLLDSQTLAHISSTRPKKFNKNQNRARFNDDAFNFDSEGKLVVKGQPKPSTNVDDPLSAVTSGINAYLEAVKSGPVRGQRNKLKFRKNGKDSDEFGDDDDGEKDSRLMRGRVNQGNKIGKHNKKGPKFKSRKKL
# B3: Bms1 (protein, UniProt Q08965 1-1183)
# chain: MEQSNKQHRKAKEKNTAKKKLHTQGHNAKAFAVAAPGKMARTMQRSSDVNERKLHVPMVDRTPEDDPPPFIVAVVGPPGTGKTTLIRSLVRRMTKSTLNDIQGPITVVSGKHRRLTFLECPADDLNAMIDIAKIADLVLLLIDGNFGFEMETMEFLNIAQHHGMPRVLGVATHLDLFKSQSTLRASKKRLKHRFWTEVYQGAKLFYLSGVINGRYPDREILNLSRFISVMKFRPLKWRNEHPYMLADRFTDLTHPELIETQGLQIDRKVAIYGYLHGTPLPSAPGTRVHIAGVGDFSVAQIEKLPDPCPTPFYQQKLDDFEREKMKEEAKANGEITTASTTRRRKRLDDKDKLIYAPMSDVGGVLMDKDAVYIDIGKKNEEPSFVPGQERGEGEKLMTGLQSVEQSIAEKFDGVGLQLFSNGTELHEVADHEGMDVESGEESIEDDEGKSKGRTSLRKPRIYGKPVQEEDADIDNLPSDEEPYTNDDDVQDSEPRMVEIDFNNTGEQGAEKLALETDSEFEESEDEFSWERTAANKLKKTESKKRTWNIGKLIYMDNISPEECIRRWRGEDDDSKDESDIEEDVDDDFFRKKDGTVTKEGNKDHAVDLEKFVPYFDTFEKLAKKWKSVDAIKERFLGAGILGNDNKTKSDSNEGGEELYGDFEDLEDGNPSEQAEDNSDKESEDEDENEDTNGDDDNSFTNFDAEEKKDLTMEQEREMNAAKKEKLRAQFEIEEGENFKEDDENNEYDTWYELQKAKISKQLEINNIEYQEMTPEQRQRIEGFKAGSYVRIVFEKVPMEFVKNFNPKFPIVMGGLLPTEIKFGIVKARLRRHRWHKKILKTNDPLVLSLGWRRFQTLPIYTTTDSRTRTRMLKYTPEHTYCNAAFYGPLCSPNTPFCGVQIVANSDTGNGFRIAATGIVEEIDVNIEIVKKLKLVGFPYKIFKNTAFIKDMFSSAMEVARFEGAQIKTVSGIRGEIKRALSKPEGHYRAAFEDKILMSDIVILRSWYPVRVKKFYNPVTSLLLKEKTEWKGLRLTGQIRAAMNLETPSNPDSAYHKIERVERHFNGLKVPKAVQKELPFKSQIHQMKPQKKKTYMAKRAVVLGGDEKKARSFIQKVLTISKAKDSKRKEQKASQRKERLKKLAKMEEEKSQRDKEKKKEYFAQNGKRTTMGGDDESRPRKMRR
# B4: Enp1 (protein, UniProt P38333 1-483)
# chain: MARASSTKARKQRHDPLLKDLDAAQGTLKKINKKKLAQNDAANHDAANEEDGYIDSKASRKILQLAKEQQDEIEGEELAESERNKQFEARFTTMSYDDEDEDEDEDEEAFGEDISDFEPEGDYKEEEEIVEIDEEDAAMFEQYFKKSDDFNSLSGSYNLADKIMASIREKESQVEDMQDDEPLANEQNTSRGNISSGLKSGEGVALPEKVIKAYTTVGSILKTWTHGKLPKLFKVIPSLRNWQDVIYVTNPEEWSPHVVYEATKLFVSNLTAKESQKFINLILLERFRDNIETSEDHSLNYHIYRAVKKSLYKPSAFFKGFLFPLVETGCNVREATIAGSVLAKVSVPALHSSAALSYLLRLPFSPPTTVFIKILLDKKYALPYQTVDDCVYYFMRFRILDDGSNGEDATRVLPVIWHKAFLTFAQRYKNDITQDQRDFLLETVRQRGHKDIGPEIRRELLAGASREFVDPQEANDDLMIDVN
# B5: Lcp5 (protein, UniProt P40079 1-357)
# chain: MSELNALLKDINGSLTATSESLERLSGIYSNSATDEIPESNQLHEHLFYDAKKPAEKVSLLSLKNGSMLGYINSLLMLIGNRLDDECKDPSAMDARERSIQHRVVLERGVKPLEKKLAYQLDKLTRAYVKMEKEYKDAEKRALEKSTLVNHSGNDDSEDDESSEDEIAYRPNTSGIINTNKKSSAYRVEETAKQENGEENDDNETGVYKPPKITAVLPPQQTHFEDRFDAREHKDRSNKSRMQAMEEYIRESSDQPDWSASIGADIVNHGRGGIKSLRDTEKERRVTSFEEDNFTRLNITNKAEKRKQKQRERNARMNVIGGEDFGIFSSKRKLEDSTSRRGAKKTRSAWDRAQRRL
# B6: Utp30 (protein, UniProt P36144 1-274)
# chain: MVESNDIIKSGLAEKALKALILQCEENPSLKNDKDIHIIINTGKKMGINRDNIPRIIPLTKYKLFKPRDLNILLITKDPSALYRETLTKDEHTSELFKEIISVKNLRRRFKGSKLTQLYKDFDLVVADYRVHHLLPEVLGSRFYHGSKKLPYMIRMSKEVKLKRQQMVEKCDPIYVRAQLRSICKNTSYIPNNDNCLSVRVGYIQKHSIPEILQNIQDTINFLTDKSKRPQGGVIKGGIISIFVKTSNSTSLPIYQFSEARENQKNEDLSDIKL
# B7: Utp14 (protein, UniProt Q04500 1-899)
# chain: MAKKKSKSRSKSSRRVLDALQLAEREINGEFDNSSDNDKRHDARRNGTVVNLLKRSKGDTNSDEDDIDSESFEDEELNSDEALGSDDDYDILNSKFSQTIRDKKENANYQEEEDEGGYTSIDEEDLMPLSQVWDMDEKTAQSNGNDDEDASPQLKLQDTDISSESSSSEESESESEDDEEEEDPFDEISEDEEDIELNTITSKLIDETKSKAPKRLDTYGSGEANEYVLPSANAASGASGKLSLTDMMNVIDDRQVIENANLLKGKSSTYEVPLPQRIQQRHDRKAAYEISRQEVSKWNDIVQQNRRADHLIFPLNKPTEHNHASAFTRTQDVPQTELQEKVDQVLQESNLANPEKDSKFEELSTAKMTPEEMRKRTTEMRLMRELMFREERKARRLKKIKSKTYRKIKKKELMKNRELAAVSSDEDNEDHDIARAKERMTLKHKTNSKWAKDMIKHGMTNDAETREEMEEMLRQGERLKAKMLDRNSDDEEDGRVQTLSDVENEEKENIDSEALKSKLGKTGVMNMAFMKNGEAREREANKETLRQLRAVENGDDIKLFESDEEETNGENIQINKGRRIYTPGSLESNKDMNELNDHTRKENKVDESRSLENRLRAKNSGQSKNARTNAEGAIIVEEESDGEPLQDGQNNQQDEEAKDVNPWLANESDEEHTVKKQSSKVNVIDKDSSKNVKAMNKMEKAELKQKKKKKGKSNDDEDLLLTADDSTRLKIVDPYGGSDDEQGDNVFMFKQQDVIAEAFAGDDVVAEFQEEKKRVIDDEDDKEVDTTLPGWGEWAGAGSKPKNKKRKFIKKVKGVVNKDKRRDKNLQNVIINEKVNKKNLKYQSSAVPFPFENREQYERSLRMPIGQEWTSRASHQELIKPRIMTKPGQVIDPLKAPFK
# B8: Faf1 (protein, UniProt P40546 1-346)
# chain: MTLDDDDYIKQMELQRKAFESQFGSLESMGFEDKTKNIRTEVDTRDSSGDEIDNSDHGSDFKDGTIESSNSSDEDSGNETAEENNQDSKPKTQPKVIRFNGPSDVYVPPSKKTQKLLRSGKTLTQINKKLESTEAKEEKEDETLEAENLQNDLELQQFLRESHLLSAFNNGGSGSTNSGVSLTLQSMGGGNDDGIVYQDDQVIGKARSRTLEMRLNRLSRVNGHQDKINKLEKVPMHIRRGMIDKHVKRIKKYEQEAAEGGIVLSKVKKGQFRKIESTYKKDIERRIGGSIKARDKEKATKRERGLKISSVGRSTRNGLIVSKRDIARISGGERSGKFNGKKKSRR
# B9: Bfr2 (protein, UniProt Q06631 1-534)
# chain: MEKSLADQISDIAIKPVNKDFDIEDEENASLFQHNEKNGESDLSDYGNSNTEETKKAHYLEVEKSKLRAEKGLELNDPKYTGVKGSRQALYEEVSENEDEEEEEEEEEEKEEDALSFRTDSEDEEVEIDEEESDADGGETEEAQQKRHALSKLIQQETKQAINKLSQSVQRDASKGYSILQQTKLFDNIIDLRIKLQKAVIAANKLPLTTESWEEAKMDDSEETKRLLKENEKLFNNLFNRLINFRIKFQLGDHITQNEEVAKHKLSKKRSLKELYQETNSLDSELKEYRTAVLNKWSTKVSSASGNAALSSNKFKAINLPADVQVENQLSDMSRLMKRTKLNRRNITPLYFQKDCANGRLPELISPVVKDSVDDNENSDDGLDIPKNYDPRRKDNNAIDITENPYVFDDEDFYRVLLNDLIDKKISNAHNSESAAITITSTNARSNNKLKKNIDTKASKGRKLNYSVQDPIANYEAPITSGYKWSDDQIDEFFAGLLGQRVNFNENEDEEQHARIENDEELEAVKNDDIQIFG
# Biological target: Utp10-TAP (S. cerevisiae) (UniProt P42945)
# Assay: affinity purification with mass spectrometry
row,binding,Binder
1,binds,B1
2,binds,B2
3,binds,B3
4,binds,B4
5,binds,B5
6,binds,B6
7,binds,B7
8,binds,B8
9,binds,B9
